# Measured values reported in the supplement of paper PMC12889115.
# The other results are listed elsewhere or left out. Values are raw readings; no control value is given beside them.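 In the initial screen, polymyxin B was used at a concentration that permeabilizes Salmonella's outer membrane but not its inner membrane. Maximum growth was set by DMSO wells with or without polymyxin B. Since plates varied, data were ranked per plate, and compounds giving the lowest OD600 advanced as hits.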
# Tested on: Salmonella enterica serovar Typhimurium SL1344
# Experiment: bacterial growth OD600 after 18 h with compound and polymyxin B; higher = more bacterial growth (less inhibition)
# Details: 50 µM, Mueller-Hinton broth
SMILES,bacterial growth OD600 (polymyxin B 1 µg/mL),bacterial growth OD600 (polymyxin B 0.75 µg/mL)
COc1ccc(C(=O)C2CCCN(C(=O)CCc3ccccc3OC)C2)c(C)c1 (centres undefined),0.049,
CN(CC1CCCN(CCc2ccc(Cl)cc2)C1)C(=O)c1cc2ncccn2n1 (centres undefined),0.938,
CN(c1ncccc1CNC(=O)Cn1cncn1)C1CCCCC1,0.929,
CCn1ccnc1CN(C)Cc1cnc(S(=O)(=O)C(C)C)n1CCC(C)C,1.08,
CC(C)CN1CCC(C2CCN(S(C)(=O)=O)C2)CC1 (centres undefined),,0.887
c1cc(CCCNc2ccc(-c3nc(C4CC4)no3)cn2)ccn1,1.05,
Cc1cccc(CNCC2(O)CCCN(Cc3cccc(F)c3F)C2=O)n1 (centres undefined),,0.982
CCN1CCC(N2CCC(n3nccc3NC(=O)c3ccc4c(c3)OCO4)CC2)CC1,,0.814
C=CCN1CC(C(=O)NCc2nc(-c3ccc(NC(=O)c4ccc(COC)o4)cc3)oc2C)CC1=O (centres undefined),,0.76
